Consider 2 molecules from paper PMC9492696.

The chains behind the UniProt entries cited, without tags or fusion partners. Residues count along the entry.
UniProt P05106, residues 27-788: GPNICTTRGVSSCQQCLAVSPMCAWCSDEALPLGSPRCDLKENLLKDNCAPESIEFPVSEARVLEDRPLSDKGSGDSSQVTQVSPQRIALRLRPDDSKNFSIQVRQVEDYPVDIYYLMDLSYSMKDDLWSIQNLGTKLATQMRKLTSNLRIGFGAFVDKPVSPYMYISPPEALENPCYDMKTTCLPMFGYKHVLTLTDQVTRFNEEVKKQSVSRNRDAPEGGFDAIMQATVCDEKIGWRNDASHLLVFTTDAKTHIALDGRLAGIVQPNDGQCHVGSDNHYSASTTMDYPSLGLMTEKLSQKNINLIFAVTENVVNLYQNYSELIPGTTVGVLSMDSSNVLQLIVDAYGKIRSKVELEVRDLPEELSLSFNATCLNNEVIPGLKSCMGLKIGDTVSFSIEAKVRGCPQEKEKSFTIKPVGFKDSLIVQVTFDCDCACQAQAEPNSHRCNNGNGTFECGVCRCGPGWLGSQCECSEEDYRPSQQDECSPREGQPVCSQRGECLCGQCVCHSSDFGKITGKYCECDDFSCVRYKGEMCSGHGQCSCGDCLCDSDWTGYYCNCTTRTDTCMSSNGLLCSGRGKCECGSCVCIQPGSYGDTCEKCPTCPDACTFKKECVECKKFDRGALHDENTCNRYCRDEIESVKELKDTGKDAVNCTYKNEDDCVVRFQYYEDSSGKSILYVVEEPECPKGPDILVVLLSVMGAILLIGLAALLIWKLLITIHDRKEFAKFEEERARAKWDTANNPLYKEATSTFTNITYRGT

These are yes or no findings as the source states them, for the method shown. In cells and extracts the contact can be indirect. Some entries that bind do so weakly or less than the wild type. For some assays here: Where a sequence is shown, tags or fusion partners need not be part of it.

In assay [1] the target is T1, GST-MIIP (migration and invasion inhibitory protein) (human) (UniProt Q5JXC2).
T1 sequence: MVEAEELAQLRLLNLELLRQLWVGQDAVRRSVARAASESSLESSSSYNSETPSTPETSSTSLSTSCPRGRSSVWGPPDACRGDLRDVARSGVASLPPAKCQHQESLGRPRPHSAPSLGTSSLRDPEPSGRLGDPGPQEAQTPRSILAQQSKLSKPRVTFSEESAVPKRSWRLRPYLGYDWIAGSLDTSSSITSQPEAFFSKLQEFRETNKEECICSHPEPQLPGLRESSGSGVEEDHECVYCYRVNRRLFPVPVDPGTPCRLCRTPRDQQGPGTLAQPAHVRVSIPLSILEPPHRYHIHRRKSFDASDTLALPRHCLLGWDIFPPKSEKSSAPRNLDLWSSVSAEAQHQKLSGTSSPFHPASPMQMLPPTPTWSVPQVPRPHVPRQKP
Description: pull-down; GST, GST-MIIP or GST-MIIP^ΔRGD on GST agarose beads incubated overnight at 4 °C with lysates of MDA-MB-231 cells; washed three times with PBS; western blot with antibodies against ITGB3 and ITGAV; only the target purified. A general note: Immunoblotting shows a protein as a band on a membrane.

For assay [2], the target named is ITGB3 expressed from pcDNA3.1-beta-3 (human) (UniProt P05106). In words: co-IP; 293T cells; NP40 lysis buffer; antibody against c-Myc tag on Protein G magnetic beads, lysate added overnight at 4 °C; western blot.

For “Integrin β3 (ITGB3), endogenous in MDA-MB-231 cells (from UniProt P05106 27-788) (receptor)”, the binding entry in assay [1] is given as “binds”.

B1: MIIP expressed from pcDNA3.0-MIIP (protein, UniProt Q5JXC2 1-388)
chain: MVEAEELAQLRLLNLELLRQLWVGQDAVRRSVARAASESSLESSSSYNSETPSTPETSSTSLSTSCPRGRSSVWGPPDACRGDLRDVARSGVASLPPAKCQHQESLGRPRPHSAPSLGTSSLRDPEPSGRLGDPGPQEAQTPRSILAQQSKLSKPRVTFSEESAVPKRSWRLRPYLGYDWIAGSLDTSSSITSQPEAFFSKLQEFRETNKEECICSHPEPQLPGLRESSGSGVEEDHECVYCYRVNRRLFPVPVDPGTPCRLCRTPRDQQGPGTLAQPAHVRVSIPLSILEPPHRYHIHRRKSFDASDTLALPRHCLLGWDIFPPKSEKSSAPRNLDLWSSVSAEAQHQKLSGTSSPFHPASPMQMLPPTPTWSVPQVPRPHVPRQKP
In the case of B1, the binding result in assay [2] is reported as “binds”.
